From patent publication US20150031859A1 come the findings set out here.

The chains behind the UniProt entries cited, without tags or fusion partners. Where a name states a change or a piece, a line headed by the entry shows the natural chain unless it says otherwise.
UniProt P01568: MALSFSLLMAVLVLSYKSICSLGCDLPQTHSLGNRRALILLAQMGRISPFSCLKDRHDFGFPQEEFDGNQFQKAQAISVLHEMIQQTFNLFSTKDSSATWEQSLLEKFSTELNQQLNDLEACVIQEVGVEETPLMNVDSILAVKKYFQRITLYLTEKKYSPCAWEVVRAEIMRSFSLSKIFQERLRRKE

This test concerns the target recombinant interferon rSIFN-co (Synthesis (unnatural, artificially designed; same amino acid sequence as human consensus interferon)) (UniProt P01568). The test is described as follows: purification experiments (solution state).

Results are given in words; binding and its absence hold for the method and conditions named.

For the substance “recombinant interferon rSIFN-co (from UniProt P01568 24-189) (ligand)”, the binding result was “no binding”.
